For series [1], the target named is human MCP-1 (CCL2, natural L-form) (Homo sapiens) (UniProt P13500). Nature of the series: activity in cells. To be noted: L-RNA, inhibition of THP-1 chemotaxis, mirror-image nucleic acid, variant of 180-D1-036 (L-RNA Spiegelmer).
Series [2] shares this target. Nature of the series: SPR. Conditions: L-RNA; range stated for 181-A2 and its derivatives, 37 C; mirror-image nucleic acid; variant of 181-A2 (L-RNA Spiegelmer).

Sequences of proteins named here, by UniProt entry; tags and fusion partners are left off. Residues count along the entry.
UniProt P13500, 24-99: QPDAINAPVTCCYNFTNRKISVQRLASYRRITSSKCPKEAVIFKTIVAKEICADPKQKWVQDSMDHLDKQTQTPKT

The record followed here is patent US20170233737.

The exact form of at least one protein or probe is not confirmed.

Usually IC50 stands for the midpoint of a concentration-inhibition curve. A low value points to greater potency in that assay. “GCACGUCCCUCACCGGUGCAAGUGAAGCCGUGGCUCUGCG [180-D1-036-3'PEG]” displayed an IC50 in series [1] (3'-PEG 40 kDa) of less than 1 nM.

On to “GCACGUCCCUCACCGGUGCAAGUGAAGCCGUGGCUCUGCG [180-D1-036-5'PEG (NOX-E36 when specific linker)]”, for which, in series [1] (5'-PEG 40 kDa), the IC50 is less than 1 nM.

For “GGGCGUAGUGAGAAACUACCAACGACUGGCUAGAGCCGGCCC [181-A2-018 (L-RNA)]”, the binding result in series [2] is reported as “binds”.
